Measurements published in article PMC9740361.

By UniProt entry, the sequences of proteins in these tests, tags left out.
UniProt P35579: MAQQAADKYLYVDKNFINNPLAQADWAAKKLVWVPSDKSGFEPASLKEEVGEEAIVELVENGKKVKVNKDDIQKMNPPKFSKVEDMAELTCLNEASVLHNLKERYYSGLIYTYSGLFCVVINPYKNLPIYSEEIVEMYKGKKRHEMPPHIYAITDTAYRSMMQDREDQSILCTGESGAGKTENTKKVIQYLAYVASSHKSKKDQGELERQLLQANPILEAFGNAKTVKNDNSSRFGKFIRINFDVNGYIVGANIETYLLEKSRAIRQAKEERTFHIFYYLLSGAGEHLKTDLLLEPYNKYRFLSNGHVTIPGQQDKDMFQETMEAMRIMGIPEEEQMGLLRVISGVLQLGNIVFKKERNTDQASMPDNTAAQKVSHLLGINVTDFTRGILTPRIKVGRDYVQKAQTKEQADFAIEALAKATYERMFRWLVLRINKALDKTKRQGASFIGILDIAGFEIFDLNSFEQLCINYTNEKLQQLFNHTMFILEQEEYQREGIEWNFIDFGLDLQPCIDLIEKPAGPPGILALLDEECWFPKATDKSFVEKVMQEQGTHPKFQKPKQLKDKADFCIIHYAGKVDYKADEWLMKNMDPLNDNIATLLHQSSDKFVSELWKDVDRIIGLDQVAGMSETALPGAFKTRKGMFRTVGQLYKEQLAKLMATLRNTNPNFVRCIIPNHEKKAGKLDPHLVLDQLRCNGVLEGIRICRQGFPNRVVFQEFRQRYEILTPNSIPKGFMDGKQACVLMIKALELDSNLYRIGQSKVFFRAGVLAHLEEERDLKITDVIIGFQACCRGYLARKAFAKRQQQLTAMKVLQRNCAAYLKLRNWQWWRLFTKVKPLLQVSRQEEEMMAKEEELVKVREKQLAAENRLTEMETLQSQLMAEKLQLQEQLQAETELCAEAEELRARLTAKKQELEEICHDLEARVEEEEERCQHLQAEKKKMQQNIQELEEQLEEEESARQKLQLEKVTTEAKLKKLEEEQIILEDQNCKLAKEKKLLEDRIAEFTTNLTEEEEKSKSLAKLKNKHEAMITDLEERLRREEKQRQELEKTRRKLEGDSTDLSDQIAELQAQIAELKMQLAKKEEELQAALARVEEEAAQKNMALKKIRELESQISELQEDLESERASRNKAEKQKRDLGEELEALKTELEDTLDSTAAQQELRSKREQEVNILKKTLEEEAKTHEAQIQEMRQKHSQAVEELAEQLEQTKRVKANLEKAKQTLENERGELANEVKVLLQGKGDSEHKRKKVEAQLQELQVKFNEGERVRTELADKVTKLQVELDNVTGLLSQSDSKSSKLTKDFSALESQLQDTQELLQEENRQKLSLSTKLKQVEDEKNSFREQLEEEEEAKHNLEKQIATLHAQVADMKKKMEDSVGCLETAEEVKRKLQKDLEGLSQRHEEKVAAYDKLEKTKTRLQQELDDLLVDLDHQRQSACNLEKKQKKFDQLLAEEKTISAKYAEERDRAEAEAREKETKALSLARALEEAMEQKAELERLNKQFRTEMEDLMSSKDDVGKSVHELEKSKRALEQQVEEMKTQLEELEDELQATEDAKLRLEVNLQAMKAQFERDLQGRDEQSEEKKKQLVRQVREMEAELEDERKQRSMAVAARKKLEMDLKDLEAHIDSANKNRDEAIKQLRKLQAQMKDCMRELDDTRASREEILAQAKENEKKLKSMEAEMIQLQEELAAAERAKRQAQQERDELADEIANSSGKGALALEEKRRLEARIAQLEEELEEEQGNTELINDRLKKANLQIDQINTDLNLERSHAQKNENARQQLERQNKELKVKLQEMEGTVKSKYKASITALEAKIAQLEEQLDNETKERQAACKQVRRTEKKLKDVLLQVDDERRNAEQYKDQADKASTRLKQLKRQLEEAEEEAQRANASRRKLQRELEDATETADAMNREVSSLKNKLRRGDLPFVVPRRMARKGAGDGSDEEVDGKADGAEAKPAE

Biological target: T1, Nucleosome assembly protein 1-like 5 (NAP1L5), Flag-tagged (human) (UniProt Q96NT1)
T1 sequence: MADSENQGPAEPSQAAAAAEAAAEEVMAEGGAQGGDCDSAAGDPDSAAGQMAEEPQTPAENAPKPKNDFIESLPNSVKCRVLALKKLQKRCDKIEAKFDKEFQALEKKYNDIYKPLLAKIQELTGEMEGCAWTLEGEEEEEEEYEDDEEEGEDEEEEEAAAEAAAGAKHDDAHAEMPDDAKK
Assay: affinity purification with mass spectrometry; FLAG IP (FLAGIPT1 kit, Sigma) from lysate of MHCC97H cells overexpressing FLAG-labelled NAP1L5, lysed at 4°C; mass spectrometry of tryptic fragments

binding: binds
Substance: MYH9 (nonmuscle myosin, NMIIA) (from UniProt P35579 1-1960)

No constants are given. Whether binding was seen depends on the method and setting. In cells and extracts the contact can be indirect. These calls come from enrichment with a bait or labelling near it, and not all partners need be listed. Tags and fused reporters may be left off the sequences shown.
